Source: publication PMC9685459
Construct, isoform or probe ends are uncertain for at least one entry. Results from cells or extracts need not show a direct contact. No signal at the amounts used counts as a negative. At least one verdict rests on a figure or table, not on a statement of the authors.

Sequences of proteins named here, by UniProt entry; tags and fusion partners are left off. Residues count along the entry.
UniProt Q13308, 31-1070: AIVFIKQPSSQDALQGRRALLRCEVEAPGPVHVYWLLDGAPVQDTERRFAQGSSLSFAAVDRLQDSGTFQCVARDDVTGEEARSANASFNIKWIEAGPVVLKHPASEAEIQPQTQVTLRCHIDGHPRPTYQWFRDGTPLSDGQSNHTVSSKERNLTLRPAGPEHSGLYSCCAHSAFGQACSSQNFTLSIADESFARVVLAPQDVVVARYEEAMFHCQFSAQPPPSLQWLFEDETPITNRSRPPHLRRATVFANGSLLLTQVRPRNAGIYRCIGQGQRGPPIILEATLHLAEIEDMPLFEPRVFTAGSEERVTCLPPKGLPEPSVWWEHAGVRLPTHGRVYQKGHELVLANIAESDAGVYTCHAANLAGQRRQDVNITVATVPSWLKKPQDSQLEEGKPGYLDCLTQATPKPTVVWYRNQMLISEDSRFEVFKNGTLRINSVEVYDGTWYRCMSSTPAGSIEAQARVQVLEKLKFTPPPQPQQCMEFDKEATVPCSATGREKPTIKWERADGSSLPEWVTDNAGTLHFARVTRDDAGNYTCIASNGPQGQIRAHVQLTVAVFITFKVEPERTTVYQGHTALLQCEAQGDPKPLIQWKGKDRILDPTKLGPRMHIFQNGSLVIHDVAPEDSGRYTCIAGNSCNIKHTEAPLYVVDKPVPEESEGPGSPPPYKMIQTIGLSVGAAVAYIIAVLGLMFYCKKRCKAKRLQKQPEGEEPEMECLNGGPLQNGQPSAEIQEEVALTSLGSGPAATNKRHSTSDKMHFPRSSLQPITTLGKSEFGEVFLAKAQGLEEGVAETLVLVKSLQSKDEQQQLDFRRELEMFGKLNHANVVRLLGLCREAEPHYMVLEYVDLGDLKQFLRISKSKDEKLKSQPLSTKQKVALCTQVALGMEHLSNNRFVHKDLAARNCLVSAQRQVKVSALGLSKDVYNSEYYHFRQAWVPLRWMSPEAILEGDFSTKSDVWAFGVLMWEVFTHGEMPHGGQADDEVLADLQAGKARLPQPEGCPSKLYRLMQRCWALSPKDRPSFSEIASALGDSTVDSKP

Biological target: PTK7 (cell-surface receptor on CEM and HeLa cells) (UniProt Q13308)
Assay: cell imaging (CLSM) and flow cytometry
Details: live-cell incubation (culture medium, 37 °C, 5% CO2, 2 h stated for the HeLa uptake assay of nanoclusters), protein on the cell surface, label: 5' FAM on T, single-stranded DNA

Row | Sequence | binding result (no signal on PTK7-negative Ramos cells) | binding result (no obvious fluorescence)
1 | TTTTTATCTAACTGCTGCGCCGCCGGGAAAATACTGTACGGTTAGA [F-sgc8 (FAM-modified sgc8)] | binds | 
2 | TTTTTGCGAGTATGTTGTCAACTGCCTTCCACTCTGATATAAACCA [F-Lib (FAM-modified library DNA, single printed sequence)] |  | no binding
